Values of other authors, collected in patent publication US20110143366A1, “PROTEIN BIOMARKERS FOR IN VITRO TESTING OF DEVELOPMENTAL TOXICITY AND ENBRYOTOXICITY OF CHEMICAL SUBSTANCES” (PROTEOSYS AG, priority 2008, published 2011).

Test system: Cardiomyocytes differentiated from murine embryonic stem cells (EST model)
Conditions: substances with known embryotoxic potency used in the EST model

## NS(=O)(=O)c1cc(C(=O)O)c(NCc2ccco2)cc1Cl [furosemide]
  Embryotoxicity class of the substance: moderately embryotoxic
